PMC7819943, “Rice protein-binding microarrays: a tool to detect cis-acting elements near promoter regions in rice”
This is one part of the list.

Protein sequences, listed by entry. Tags and fused reporters are not part of them.
UniProt Q0JBA9, entry or part of it: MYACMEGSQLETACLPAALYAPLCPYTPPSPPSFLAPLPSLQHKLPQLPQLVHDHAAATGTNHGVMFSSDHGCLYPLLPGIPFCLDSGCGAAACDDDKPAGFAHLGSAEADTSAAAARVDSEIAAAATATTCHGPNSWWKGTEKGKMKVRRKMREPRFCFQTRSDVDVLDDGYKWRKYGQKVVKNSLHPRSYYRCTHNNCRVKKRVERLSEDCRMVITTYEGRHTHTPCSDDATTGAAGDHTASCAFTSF

target: OsWRKY34 (Oryza sativa, UniProt Q0JBA9 1-250); test: protein-binding microarray (RPBM); PBS, 2% BSA, 51.3 ng/ul salmon testes DNA, 50 uM zinc acetate, 200 nM TF, 25 C, 1 h; high values mean tight binding; conditions: protein: recombinant; tags: N-terminal polyhistidine and DsRed monomer fusion (pET32a); label: CyDye5-dUTP incorporated in the synthesized complementary strand; 3' TTTTT single-stranded linker to array surface; dsDNA, one strand shown
In short: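 The binding signal for each feature is its fluorescence intensity in arbitrary units. An Axon 4000B scanner was used to read a custom Agilent array that had been made double-stranded with Cy5-dUTP primer extension, blocked with 2% BSA, incubated at 25 °C for 1 h with 200 nM protein in PBS, 2% BSA, salmon testes DNA and 50 µM zinc acetate, and washed. The protein was an N-terminal polyhistidine–DsRed transcription factor fusion from E. coli BL21-CodonPlus, purified on Ni–NTA.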

Sequence | binding signal
GATTTGCACAGACATGTTTCCGTTTGTATTGTTCAGTTTTCGGAGTCACCTAGTGCAG | 8500 fluorescence intensity (a.u.)
GATGAGGCGGGGTGCGCGCACGGCAGTTTGGATGATTTTTCGGAGTCACCTAGTGCAG | 8370 fluorescence intensity (a.u.)
TTAAAAAACATTGTACCACAAGTAGCAACAAATTAATGCTCGGAGTCACCTAGTGCAG | 26900 fluorescence intensity (a.u.)
GCTCCCATCCACACCCGCAACCACCTCGCTCGCTAAAAATCGGAGTCACCTAGTGCAG | 8370 fluorescence intensity (a.u.)
AGGAGCCTTTATTGCTGTTTTTTTTCTCTCTTCCTTGCTCCGGAGTCACCTAGTGCAG | 11300 fluorescence intensity (a.u.)
GTTGCATTTGCCGCTGCGACACGGACCCCGCCTTAATAACCGGAGTCACCTAGTGCAG | 9020 fluorescence intensity (a.u.)
CCGCCGTCTTCGTCCGCATCCGGGTCAAATCAAATCGAGACGGAGTCACCTAGTGCAG | 8540 fluorescence intensity (a.u.)
CTACCCATTTATTTAAGCTTAGACTTTTCTGCTCCTAAACCGGAGTCACCTAGTGCAG | 10100 fluorescence intensity (a.u.)
CCCACTGCCTCGCTGCTGACCTCGTGGCTTTGTTGGCCTCCGGAGTCACCTAGTGCAG | 8450 fluorescence intensity (a.u.)
GTAGATGTCGGGTGGGATGGTTTCAGGAAAAGAAACATGACGGAGTCACCTAGTGCAG | 12800 fluorescence intensity (a.u.)
GTACCACCGAGCTTCTCTAACTTCACTGGATCCCAAATTCCGGAGTCACCTAGTGCAG | 9660 fluorescence intensity (a.u.)
GCACGGGTGACCAGTTGTACTCCCCGCTTCACCTGCATCTCGGAGTCACCTAGTGCAG | 8230 fluorescence intensity (a.u.)
CATTCAGCCGACACGCCTCTCTCTCTCTCTCCGCTGCTGCCGGAGTCACCTAGTGCAG | 9060 fluorescence intensity (a.u.)
ATTGCGAATTTTTTGAATTGCCGAGCTCCGACCACGCCTACGGAGTCACCTAGTGCAG | 8040 fluorescence intensity (a.u.)
CTCTCCTAGTTTCATATTATAAGTTACTTTTATTTTTTTCCGGAGTCACCTAGTGCAG | 9650 fluorescence intensity (a.u.)
GTTTGTAACGTATTTTAGCTCGCTTTATAACGGGGCAGTTCGGAGTCACCTAGTGCAG | 8160 fluorescence intensity (a.u.)
TCGACCATTCTCGTGTGATTCTTCAAATTTGATCCTGCCACGGAGTCACCTAGTGCAG | 9950 fluorescence intensity (a.u.)
CTTTTGGCTATGAATTTGGTTTATATTTTGGGACGGAGGGCGGAGTCACCTAGTGCAG | 9880 fluorescence intensity (a.u.)
ACCACACCGGGTGTCACCTCAAAGTACAGTTTCCTCTTTTCGGAGTCACCTAGTGCAG | 8560 fluorescence intensity (a.u.)
AGAGGGAGCGTGTGTGCCGTTCGGGTGTGTTCAATTCAGACGGAGTCACCTAGTGCAG | 8460 fluorescence intensity (a.u.)
TCTTCCCTCTCAACTCCTCTCTCTCTCTCCTTCGTCGTCTCGGAGTCACCTAGTGCAG | 8400 fluorescence intensity (a.u.)

Exported in CSV form: part of the list above.
Sequence,binding signal
GTTGCATTTGCCGCTGCGACACGGACCCCGCCTTAATAACCGGAGTCACCTAGTGCAG,9020 fluorescence intensity (a.u.)
CCGCCGTCTTCGTCCGCATCCGGGTCAAATCAAATCGAGACGGAGTCACCTAGTGCAG,8540 fluorescence intensity (a.u.)
CTACCCATTTATTTAAGCTTAGACTTTTCTGCTCCTAAACCGGAGTCACCTAGTGCAG,10100 fluorescence intensity (a.u.)
CCCACTGCCTCGCTGCTGACCTCGTGGCTTTGTTGGCCTCCGGAGTCACCTAGTGCAG,8450 fluorescence intensity (a.u.)
GTAGATGTCGGGTGGGATGGTTTCAGGAAAAGAAACATGACGGAGTCACCTAGTGCAG,12800 fluorescence intensity (a.u.)
GTACCACCGAGCTTCTCTAACTTCACTGGATCCCAAATTCCGGAGTCACCTAGTGCAG,9660 fluorescence intensity (a.u.)
GCACGGGTGACCAGTTGTACTCCCCGCTTCACCTGCATCTCGGAGTCACCTAGTGCAG,8230 fluorescence intensity (a.u.)
CATTCAGCCGACACGCCTCTCTCTCTCTCTCCGCTGCTGCCGGAGTCACCTAGTGCAG,9060 fluorescence intensity (a.u.)
ATTGCGAATTTTTTGAATTGCCGAGCTCCGACCACGCCTACGGAGTCACCTAGTGCAG,8040 fluorescence intensity (a.u.)
CTCTCCTAGTTTCATATTATAAGTTACTTTTATTTTTTTCCGGAGTCACCTAGTGCAG,9650 fluorescence intensity (a.u.)
GTTTGTAACGTATTTTAGCTCGCTTTATAACGGGGCAGTTCGGAGTCACCTAGTGCAG,8160 fluorescence intensity (a.u.)
TCGACCATTCTCGTGTGATTCTTCAAATTTGATCCTGCCACGGAGTCACCTAGTGCAG,9950 fluorescence intensity (a.u.)
CTTTTGGCTATGAATTTGGTTTATATTTTGGGACGGAGGGCGGAGTCACCTAGTGCAG,9880 fluorescence intensity (a.u.)

(cont.)

Sequence | binding signal
TTTGACTGTGTCTTATGATGCTATCTTGATCGATCAGAACCGGAGTCACCTAGTGCAG | 8440 fluorescence intensity (a.u.)
CCTGTTACCTGTTTGGCTGACTTGGTCAAACACAACTCACCGGAGTCACCTAGTGCAG | 9460 fluorescence intensity (a.u.)
ACTTATCCTGCAACTGTACCTGCTCTGACACGACCATTCCCGGAGTCACCTAGTGCAG | 12500 fluorescence intensity (a.u.)
AGAGGGGTGGCCTCACAAATGTGATGTGGTATGTTCCTATCGGAGTCACCTAGTGCAG | 10200 fluorescence intensity (a.u.)
CCCGGCATCTTCCATCTTTTCTCTGTGGACTTTTTTACGTCGGAGTCACCTAGTGCAG | 11200 fluorescence intensity (a.u.)
TGTGGGACAGGATGGTCACTAATTTCCGGTTTTGGTTTTACGGAGTCACCTAGTGCAG | 8480 fluorescence intensity (a.u.)
AATGAGTAACTTTCTGCTTGTGTGTCACTCTACTCTTTGGCGGAGTCACCTAGTGCAG | 8720 fluorescence intensity (a.u.)
AGGGGTTAAGATTGTCCCAACTTCAGTGGAGGATGAGAGACGGAGTCACCTAGTGCAG | 8360 fluorescence intensity (a.u.)
TGTGTCTTGGGCTCCGTGCTGCAGCTGGCTACATATCTGTCGGAGTCACCTAGTGCAG | 9920 fluorescence intensity (a.u.)
AATTACTAAACGATGTATTTTTTTAAAAAAAGTTTCTATACGGAGTCACCTAGTGCAG | 8570 fluorescence intensity (a.u.)
TTTTTTTTTTGGCTGTAGGGTTTTGAAGTAATGAAGTGAACGGAGTCACCTAGTGCAG | 8180 fluorescence intensity (a.u.)
TTTTGCAGTGTTGGATGTGTTGGTTTATAGCTTCGTCATACGGAGTCACCTAGTGCAG | 12900 fluorescence intensity (a.u.)
AACTGTTCCTACTATATGCGCCGTGACAAGTGACTCAAATCGGAGTCACCTAGTGCAG | 8710 fluorescence intensity (a.u.)
TCGCCGTCGTCCTCTTCTTCCCGACGCTTCATATAGTTGCCGGAGTCACCTAGTGCAG | 8260 fluorescence intensity (a.u.)
TAAAAGTTCTGTCTTGGTCGGAGTGGGGATAGCATTTCTCCGGAGTCACCTAGTGCAG | 9790 fluorescence intensity (a.u.)
TTTTTGTTTTGACACAGATTCCTTAGCTGTTTGTCATAGCCGGAGTCACCTAGTGCAG | 8200 fluorescence intensity (a.u.)
GCTTGTGTTTCTACGATATCCTCGACAACATCTCCATCTACGGAGTCACCTAGTGCAG | 9470 fluorescence intensity (a.u.)
AATTCTTCTTCACATGCTTCTTCGCGTCATGCATAAACACCGGAGTCACCTAGTGCAG | 9820 fluorescence intensity (a.u.)
GCCTTTATAACCGGCGCCACCCCTTGCTGCTAAATCTTGACGGAGTCACCTAGTGCAG | 13400 fluorescence intensity (a.u.)
CTTATCTGTTTTGTGCTGTGGTTCTGATCAAGGTACAGTTCGGAGTCACCTAGTGCAG | 8530 fluorescence intensity (a.u.)
CTAATTTCCTCTGTTTCGCAACTACTATATGCTTTGAATACGGAGTCACCTAGTGCAG | 8760 fluorescence intensity (a.u.)

Sequence | binding signal
CGTCTCTCTCACCTCGCCGCTGCATCATCTCCTGCTCTGCCGGAGTCACCTAGTGCAG | 8390 fluorescence intensity (a.u.)
AAACTGTTCTCCTCCACTTGCCTATCTTATCCTCTCTTATCGGAGTCACCTAGTGCAG | 8930 fluorescence intensity (a.u.)
GACCTTTTCTTATACTGTATCATATTTTAGTTGATTATCACGGAGTCACCTAGTGCAG | 10200 fluorescence intensity (a.u.)
ACCGTTGTACATGTCCTAACAGTTATAATCATACAACAGACGGAGTCACCTAGTGCAG | 9010 fluorescence intensity (a.u.)
CCACCACCGCACTCAACTCAACTCGTGTCCTTTTTCACGACGGAGTCACCTAGTGCAG | 10400 fluorescence intensity (a.u.)
CGTTGTTTATCTTTTCTAATGCCATGTGTATATATGATTCCGGAGTCACCTAGTGCAG | 10500 fluorescence intensity (a.u.)
GGTGGGTTGTTTTTTCAGCATGGTGTTCTTTTAGGGAGAGCGGAGTCACCTAGTGCAG | 12400 fluorescence intensity (a.u.)
CCACGGCGTCCTCGAACTTGATCGCGCTGTCCAACAACCCCGGAGTCACCTAGTGCAG | 9020 fluorescence intensity (a.u.)
CCTCTGAGTCTATCTCTCTCATCTGATTCCTGCGTTTTTCCGGAGTCACCTAGTGCAG | 14100 fluorescence intensity (a.u.)
CTGTTGTTTTCAGTTCAGTCATTGAATCATTTACTATGCTCGGAGTCACCTAGTGCAG | 11200 fluorescence intensity (a.u.)
TCGTCGATCATCAACCGCATCAGCATCCATCCATCCATCCCGGAGTCACCTAGTGCAG | 8190 fluorescence intensity (a.u.)
AGCGCTCCGGGGCTTTTTTGGCTGGCGTGTTCGCTTCCGGCGGAGTCACCTAGTGCAG | 9780 fluorescence intensity (a.u.)
GAGGCAGTGTGTTGTGGAGTCGTATGGCGAGTCCTTGTCTCGGAGTCACCTAGTGCAG | 9030 fluorescence intensity (a.u.)
AGATCTCTGCCGTCGCTGGCACCATCTCTCTATGGTACATCGGAGTCACCTAGTGCAG | 8360 fluorescence intensity (a.u.)
TTGGTAGTTTGCATGTTAGCCTGGCTGTATCACTTTCAGACGGAGTCACCTAGTGCAG | 8400 fluorescence intensity (a.u.)
ACACACTCCTAACGCATCGCCGGCGCTTTGATTTCTATAACGGAGTCACCTAGTGCAG | 10800 fluorescence intensity (a.u.)
ATGCTAATGAGTTTTCTTGTTTCGTGTGCACTCTAAATATCGGAGTCACCTAGTGCAG | 8130 fluorescence intensity (a.u.)
GGTCGTGCGGGTTAGAGCATTCGCGATATTTAGGGTCCTACGGAGTCACCTAGTGCAG | 9730 fluorescence intensity (a.u.)
AGCGGCTAGCTCTTGATTTTTTTTCTCTTCATTTTTGTACCGGAGTCACCTAGTGCAG | 8290 fluorescence intensity (a.u.)
GCTACTATGTATTGCGTTAGGTTTGACTATTTTATGCCTTCGGAGTCACCTAGTGCAG | 10300 fluorescence intensity (a.u.)
CTGCTAAAATTTGACTAGGTTGTTAACATGCCATTTTTTTCGGAGTCACCTAGTGCAG | 8920 fluorescence intensity (a.u.)

Sequence | binding signal
ACATCATCTCTACAGTGCATCATCCCATCCATCCATCTTTCGGAGTCACCTAGTGCAG | 10500 fluorescence intensity (a.u.)
GAAAACCATTATCTTCATGTTTATATGATTGCAACTAATTCGGAGTCACCTAGTGCAG | 8970 fluorescence intensity (a.u.)
CAAACTCCAAACACCACCTGCAGCTTTCAATTCCATTATTCGGAGTCACCTAGTGCAG | 8330 fluorescence intensity (a.u.)
TAACATATGTTTGGTTTGTTACCCTACTAGAGTTTTATAACGGAGTCACCTAGTGCAG | 9100 fluorescence intensity (a.u.)
CGAGGTGTGTCTCTCTCCCGTTCACCCGTCCGTATCCTTCCGGAGTCACCTAGTGCAG | 11100 fluorescence intensity (a.u.)
CGAGCCGAATGCTGCCTACTGCCGCCGCTTTTTTTTTTTCCGGAGTCACCTAGTGCAG | 11300 fluorescence intensity (a.u.)
GCTACACTTGTCCTCATTTACCAACACACAAGCTCTCCCTCGGAGTCACCTAGTGCAG | 8080 fluorescence intensity (a.u.)
GCGAGCGACTTCCCCATGGTCAACAAATTTAAATTTATAGCGGAGTCACCTAGTGCAG | 8980 fluorescence intensity (a.u.)
TTTTTTATATATTACACTGCTTCTTATATTCAGGTTTTTACGGAGTCACCTAGTGCAG | 8770 fluorescence intensity (a.u.)
ACCATCTCATTCTCATTCTCTTCTCTCTCTAGTTCTCATGCGGAGTCACCTAGTGCAG | 10200 fluorescence intensity (a.u.)
TCACTCGAGCTTCACACCTGTGTCAGATCTCGGAATCACTCGGAGTCACCTAGTGCAG | 9240 fluorescence intensity (a.u.)
TAGGGGTCAAGATATCTGGTTTTGCGGTTCAGGGTCATGACGGAGTCACCTAGTGCAG | 9980 fluorescence intensity (a.u.)
AAACTCTCACTCGCTCACTCACACCTCACACGCTGCTGCTCGGAGTCACCTAGTGCAG | 8070 fluorescence intensity (a.u.)
CGCCGTCACGCACCCACGCACGCACGCACGCACGCATATACGGAGTCACCTAGTGCAG | 9180 fluorescence intensity (a.u.)
ACATTGATGTACTTTTTCCCACTCTGTTTGATCCATTTGACGGAGTCACCTAGTGCAG | 10600 fluorescence intensity (a.u.)
TCCCGACACCGGCTGTCCACTTCGCTCTGCTCCACGCCGCCGGAGTCACCTAGTGCAG | 8660 fluorescence intensity (a.u.)
CCGTTTCTTGCATGCCACCTACATGATTATGAAAAAATTCCGGAGTCACCTAGTGCAG | 9760 fluorescence intensity (a.u.)
CTCAAGCAACATGTTCTTGTGTCCTTGGTTGGCCTCCATGCGGAGTCACCTAGTGCAG | 8400 fluorescence intensity (a.u.)
CTATTTTTCCTTTTCTTTATTTTTAAAGCTATCGCCAAACCGGAGTCACCTAGTGCAG | 8870 fluorescence intensity (a.u.)
ATCCTCTTCTTGCTTCACCTGCTGCCCTCTGCTCCGGTCGCGGAGTCACCTAGTGCAG | 8050 fluorescence intensity (a.u.)
GTATGGATCTATGTTGTCTTATTTAGTACTGTGTTACTATCGGAGTCACCTAGTGCAG | 10100 fluorescence intensity (a.u.)
